# From the supplement of paper PMC3334620
# In all, about 33,000 sequences were measured (“E-score (-0.5 to 0.5)”: median about -8e-05, highest 2% from about 0.23 on). Some of the results follow.
# Molecular target: T1, Nrg2 (UniProt P38082)
# T1 sequence: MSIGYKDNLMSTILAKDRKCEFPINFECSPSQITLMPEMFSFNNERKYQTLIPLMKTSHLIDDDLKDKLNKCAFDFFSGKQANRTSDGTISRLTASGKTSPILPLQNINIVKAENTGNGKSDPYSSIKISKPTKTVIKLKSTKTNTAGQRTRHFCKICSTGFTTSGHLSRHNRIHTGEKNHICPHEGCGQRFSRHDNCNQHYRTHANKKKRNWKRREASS
# Assay: PBM E-score (8-mer binding enrichment) (E-score (-0.5 to 0.5)); higher = stronger / more preferred TF binding
# Conditions: protein concentration: 100 nM; construct: GST-full length
# Outline: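 Each ungapped eight-base word and its reverse complement, pooled, received an E-score from the Universal PBM Analysis Suite. Underlying scans, normalised with masliner, recorded fluorescent anti-GST bound to GST-tagged yeast transcription factors. These were applied at about 100-200 nM to universal all-10-mer Agilent arrays double-stranded by primer extension.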
row,Sequence,PBM E-score
1,CTATCGAA,0.0945
2,AACCACCG,-0.0351
3,ACGCGGAA,-0.0174
4,ACCGTAGA,-0.0561
5,CGTACACG,0.00349
6,AAGGGCGG,0.0821
7,GACATTTA,-0.114
8,CATCATCA,-0.0392
9,AGCACTCA,-0.0775
10,ACGGTGGC,-0.0523
11,AAAGAAGA,-0.0242
12,CGTTGGAC,-0.192
13,AACGCAGG,0.0653
14,CCGGTATC,-0.227
15,ACCCGGTG,-0.0744
16,CAAATGGC,-0.122
17,ACGATGAA,0.0792
18,AATTCCAT,0.0917
19,CGGTCTGC,-0.0735
20,CGACGAAA,0.0993
21,GATAACCC,-0.0928
22,ATTGTCCC,0.0633
23,GACTTGGA,-0.141
24,AGGGTTAA,0.00717
25,CTGCTATC,0.158

row,Sequence,PBM E-score
1,GGTCTTGA,-0.0327
2,CTGAGGAA,0.0159
3,AATTCGGG,0.105
4,AAAGCCAG,-0.0713
5,ACATTTGC,0.144
6,ACAGAATG,0.0254
7,AAAACGCA,-0.0152
8,GGCCGCTA,-0.267
9,ACAACCCG,-0.109
10,AATGGACC,0.146
11,ATAGTATC,0.183
12,ACCTGATG,-0.115
13,AGCAAGTA,0.0271
14,GAGAATAC,0.101
15,CATGACAA,0.184
16,CCTCTAGC,-0.0815
17,ACGCCATA,-0.00018
18,CAGCCAGG,0.0441
19,AAGCCGCG,-0.025
20,CCCCGTCC,-0.35
21,CCGCATGA,-0.0399
22,ACTGCCAG,0.0319
23,GGTCTTAA,-0.301
24,AACACGTG,0.184
25,CTTTGTAC,-0.0291

row,Sequence,PBM E-score
1,ATACCCAT,0.0374
2,TCTTGAAA,0.0357
3,CTAGGCCA,-0.0164
4,ACACAAGC,0.0524
5,TGACTTAA,0.0721
6,AAATTCAA,0.127
7,ACACTACT,0.0376
8,CGAATCCC,0.178
9,CATCCTAA,-0.0697
10,CTCGGTGC,0.0137
11,GAAAAACC,-0.023
12,AAATTTAC,0.102
13,CGCACTGC,0.0273
14,CGTTTAAG,0.00912
15,AAGCGGGG,-0.179
16,ACGCAGGG,0.143
17,AACCATCG,0.116
18,AGCTCAGC,-0.0707
19,GGTACCGA,-0.28
20,ATTGTACC,0.0897
21,CTCACGGC,-0.187
22,CACAGCTG,-0.0153
23,TACGCCGA,-0.0919
24,GGCACTTA,-0.113
25,AAATAGGG,0.141

row,Sequence,PBM E-score
1,AGTCTTAG,-0.304
2,CAGTTAGG,0.0319
3,ACCTTGAG,-0.00603
4,CAGAATGG,0.126
5,ACCAGGGT,0.218
6,GAACAGTA,0.0804
7,GGGTAAAC,0.0156
8,GTTATACA,-0.0456
9,CCGGCCCC,-0.294
10,AACTGTAC,-0.214
11,GTGAATCA,-0.105
12,TCAATGCA,-0.183
13,CTGATGTA,0.0586
14,AGCGAATA,0.0307
15,AGACGTCT,-0.057
16,AAATGTGT,0.184
17,AAATTCAC,0.0999
18,AGTTCGAG,0.223
19,CACCGAAG,0.117
20,ATGATCCC,0.0293
21,TGGTTGAA,0.0184
22,GGCTAAAC,-0.121
23,GATAAATA,0.262
24,GGATTATA,0.24
25,GGGCGCAA,0.0315

row,Sequence,PBM E-score
1,AACGTCAC,-0.00893
2,ATCATGCG,0.00732
3,CGGAGCAC,-0.148
4,CGCAAGGC,0.203
5,ATCCTACA,-0.0742
6,CGCGGGTC,0.18
7,ATTCAAAG,-0.0908
8,ACGGGGAG,-0.107
9,CGTAACAG,0.0832
10,CCTTAGTA,-0.00652
11,CAACGACA,-0.0277
12,CAGACCTA,-0.00546
13,AACTCCGC,-0.202
14,CTCGAAAA,0.0419
15,CAAAAACG,0.139
16,CAACCAAG,0.113
17,CGGGGGCA,-0.307
18,ACATGAGC,-0.022
19,GAACGATA,0.0121
20,AAGCCCGG,-0.131
21,AGATACCC,0.137
22,CGCTCATA,0.0692
23,AGTAACAG,0.00808
24,GACGAATC,0.0804
25,AAACCCTA,0.184

row,Sequence,PBM E-score
1,CAGACCCC,-0.239
2,ACCTCTGG,-0.115
3,GTGATAAC,-0.0858
4,ACAAATCA,0.158
5,AGAGATGG,0.124
6,CCCCAGGG,0.0737
7,TAGAGAGA,-0.012
8,GGATCACA,0.128
9,GCGTCGCC,-0.0506
10,CAATTGCC,-0.00722
11,CACCGCCA,0.0123
12,CTCCAACC,0.123
13,ATGCCCAC,0.0796
14,CGGTTCTA,-0.132
15,CATAATGG,0.0154
16,GTCGAATA,0.114
17,CCGTTACC,-0.0458
18,CACAGCGA,0.158
19,GATATGAA,0.108
20,ATACGCTA,-0.0508
21,AGACGGAG,-0.0234
22,ATTATGTA,0.0957
23,ATCTTAGA,0.0367
24,ACCAGTCT,-0.0931
25,CACTAATG,0.0572

row,Sequence,PBM E-score
1,ACTTGAAC,0.0162
2,ACTCCCCC,-0.351
3,ACGTCTGG,-0.0123
4,AAGTATAC,0.0772
5,GTGACGCA,-0.0619
6,ACCGGTTG,0.0147
7,CGTCTCTC,-0.0457
8,ACTCTTCA,0.118
9,AACTCTTG,0.0274
10,AACACGGC,0.0363
11,AGTCTGGG,-0.272
12,ATAAGGCC,-0.0222
13,AGACAGAT,0.214
14,AGTCGATA,-0.0127
15,AGATGGGA,-0.00983
16,AGCAATGC,0.164
17,TGTCATAA,0.0546
18,GCGACTCC,-0.328
19,CTCTGCAA,0.0425
20,ATTCCTAA,0.0764
21,CGACGTTC,-0.237
22,AAACGAAG,-0.0408
23,GATCAAAA,0.11
24,GTGCGCCA,-0.157
25,TGGCTAAA,-0.00206

row,Sequence,PBM E-score
1,GTAAAAAA,0.0495
2,ACTCCTCG,0.096
3,GAGCGATA,0.0384
4,ACAGTGCG,-0.0227
5,GCGCACAA,0.195
6,AAGAATAT,-0.144
7,CTAGTTGC,0.0733
8,AGTCGTTA,-0.029
9,CGTCCCCC,-0.423
10,ACGGTGTA,-0.0378
11,ATAATCGG,0.246
12,GCGGAAAC,-0.149
13,ATCTGATG,-0.00567
14,CCTTGTTA,0.0691
15,ATACCATC,0.0382
16,GTATCTAA,0.119
17,GGCAACAC,-0.0515
18,ACAAAAAC,0.0302
19,GAACATAC,0.00771
20,TAACGAAA,0.154
21,AGGCAGTA,-0.185
22,TCCGTACA,0.146
23,ACGAGCGA,0.0157
24,GACTACAA,-0.117
25,GAATGGCA,0.0203

# A run of entries from further up, for reference:
row,Sequence,PBM E-score
13,ATGCCCAC,0.0796
14,CGGTTCTA,-0.132
15,CATAATGG,0.0154
16,GTCGAATA,0.114
17,CCGTTACC,-0.0458
18,CACAGCGA,0.158
19,GATATGAA,0.108
20,ATACGCTA,-0.0508
21,AGACGGAG,-0.0234
22,ATTATGTA,0.0957
23,ATCTTAGA,0.0367
24,ACCAGTCT,-0.0931
25,CACTAATG,0.0572
1,ACTTGAAC,0.0162
2,ACTCCCCC,-0.351
3,ACGTCTGG,-0.0123
4,AAGTATAC,0.0772
5,GTGACGCA,-0.0619
6,ACCGGTTG,0.0147
7,CGTCTCTC,-0.0457
8,ACTCTTCA,0.118
9,AACTCTTG,0.0274
10,AACACGGC,0.0363
11,AGTCTGGG,-0.272
12,ATAAGGCC,-0.0222
13,AGACAGAT,0.214
14,AGTCGATA,-0.0127
15,AGATGGGA,-0.00983
16,AGCAATGC,0.164
17,TGTCATAA,0.0546
18,GCGACTCC,-0.328
19,CTCTGCAA,0.0425
20,ATTCCTAA,0.0764
21,CGACGTTC,-0.237
22,AAACGAAG,-0.0408
23,GATCAAAA,0.11
24,GTGCGCCA,-0.157
25,TGGCTAAA,-0.00206
1,GTAAAAAA,0.0495
2,ACTCCTCG,0.096
3,GAGCGATA,0.0384
4,ACAGTGCG,-0.0227
5,GCGCACAA,0.195
6,AAGAATAT,-0.144
7,CTAGTTGC,0.0733
8,AGTCGTTA,-0.029
9,CGTCCCCC,-0.423
10,ACGGTGTA,-0.0378
11,ATAATCGG,0.246
12,GCGGAAAC,-0.149
13,ATCTGATG,-0.00567
14,CCTTGTTA,0.0691
15,ATACCATC,0.0382
16,GTATCTAA,0.119
17,GGCAACAC,-0.0515
18,ACAAAAAC,0.0302
19,GAACATAC,0.00771
20,TAACGAAA,0.154
21,AGGCAGTA,-0.185
22,TCCGTACA,0.146
23,ACGAGCGA,0.0157

# More records:

row,Sequence,PBM E-score
1,CAGGAGGA,-0.249
2,ATCTCGAC,0.1
3,CGCAGATA,0.144
4,AAGGGCCC,0.347
5,ATCACGCG,0.228
6,ATACTAGG,0.168
7,AAAAGGTG,-0.112
8,ATTCAAGG,0.00204
9,AACTGAGA,0.11
10,GATGATAA,0.0867
11,CACAAGCA,-0.137
12,GGGCAACA,0.0821
13,ACCAGCGT,-0.146
14,CCCAATCG,0.0369
15,ATCATGGG,0.104
16,AGCGTACA,-0.125
17,AGAAGTTA,0.0102
18,CCCCCGAG,-0.275
19,AGGCCCGG,-0.388
